Laboratory results as given in the supplement of paper PMC7666118.
The list shows a part of the results.

Chains of the proteins cited; added tags and fusions are not shown. Lines headed by an entry give the natural chain unless they say otherwise; changes in a name come on top.
UniProt O43156, whole entry: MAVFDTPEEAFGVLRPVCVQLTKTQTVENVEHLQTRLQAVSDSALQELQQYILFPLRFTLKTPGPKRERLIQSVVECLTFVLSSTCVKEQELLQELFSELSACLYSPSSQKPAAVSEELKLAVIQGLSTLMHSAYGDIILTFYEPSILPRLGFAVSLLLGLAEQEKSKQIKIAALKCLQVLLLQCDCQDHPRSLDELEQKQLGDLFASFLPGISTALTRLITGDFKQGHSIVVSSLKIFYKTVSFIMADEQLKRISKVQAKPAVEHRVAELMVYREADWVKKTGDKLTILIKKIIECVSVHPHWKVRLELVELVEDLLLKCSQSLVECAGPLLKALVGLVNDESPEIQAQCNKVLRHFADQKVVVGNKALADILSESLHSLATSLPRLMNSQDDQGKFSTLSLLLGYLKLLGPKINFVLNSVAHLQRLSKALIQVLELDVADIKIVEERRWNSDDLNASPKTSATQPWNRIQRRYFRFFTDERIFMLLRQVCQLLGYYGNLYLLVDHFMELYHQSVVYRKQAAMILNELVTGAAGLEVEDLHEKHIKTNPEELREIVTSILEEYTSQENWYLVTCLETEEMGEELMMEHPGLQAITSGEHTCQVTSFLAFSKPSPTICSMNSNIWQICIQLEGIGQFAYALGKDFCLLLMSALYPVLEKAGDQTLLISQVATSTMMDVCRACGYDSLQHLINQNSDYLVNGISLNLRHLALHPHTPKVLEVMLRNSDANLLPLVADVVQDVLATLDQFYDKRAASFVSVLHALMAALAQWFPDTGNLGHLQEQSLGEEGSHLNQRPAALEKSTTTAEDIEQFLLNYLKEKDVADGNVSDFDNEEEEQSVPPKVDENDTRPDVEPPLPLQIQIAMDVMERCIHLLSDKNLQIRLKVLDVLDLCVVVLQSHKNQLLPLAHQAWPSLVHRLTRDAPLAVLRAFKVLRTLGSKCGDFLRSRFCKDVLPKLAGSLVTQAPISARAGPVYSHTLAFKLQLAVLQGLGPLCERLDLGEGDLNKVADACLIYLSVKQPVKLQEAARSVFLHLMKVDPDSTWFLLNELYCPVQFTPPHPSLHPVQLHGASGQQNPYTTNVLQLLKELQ
UniProt Q8TB96: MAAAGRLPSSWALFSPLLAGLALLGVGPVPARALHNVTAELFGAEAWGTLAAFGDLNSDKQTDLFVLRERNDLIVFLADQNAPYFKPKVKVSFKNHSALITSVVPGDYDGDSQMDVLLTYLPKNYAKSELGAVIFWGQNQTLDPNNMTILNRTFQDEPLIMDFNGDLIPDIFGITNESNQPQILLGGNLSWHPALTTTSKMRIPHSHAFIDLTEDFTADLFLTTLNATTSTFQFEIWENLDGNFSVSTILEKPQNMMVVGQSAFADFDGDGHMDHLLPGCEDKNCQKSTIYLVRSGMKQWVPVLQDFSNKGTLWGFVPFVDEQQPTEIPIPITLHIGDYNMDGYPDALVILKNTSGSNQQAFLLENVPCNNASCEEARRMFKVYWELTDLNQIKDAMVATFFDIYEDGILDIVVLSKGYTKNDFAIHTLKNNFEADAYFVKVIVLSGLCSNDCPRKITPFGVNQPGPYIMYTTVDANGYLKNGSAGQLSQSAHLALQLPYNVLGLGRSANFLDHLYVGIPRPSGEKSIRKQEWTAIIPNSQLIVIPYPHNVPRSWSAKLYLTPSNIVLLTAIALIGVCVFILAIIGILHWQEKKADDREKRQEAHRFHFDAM
UniProt Q13303: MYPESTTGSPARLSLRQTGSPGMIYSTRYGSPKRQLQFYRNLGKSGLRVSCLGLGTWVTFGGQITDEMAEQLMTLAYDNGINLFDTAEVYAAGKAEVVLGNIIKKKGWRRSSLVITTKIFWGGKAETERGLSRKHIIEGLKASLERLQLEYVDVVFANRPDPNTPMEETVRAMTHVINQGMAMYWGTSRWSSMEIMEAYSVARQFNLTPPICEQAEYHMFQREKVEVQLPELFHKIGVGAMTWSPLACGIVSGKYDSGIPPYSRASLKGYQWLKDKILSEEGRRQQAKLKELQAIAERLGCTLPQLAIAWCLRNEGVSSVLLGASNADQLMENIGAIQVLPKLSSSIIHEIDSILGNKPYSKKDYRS
UniProt Q12906, whole entry: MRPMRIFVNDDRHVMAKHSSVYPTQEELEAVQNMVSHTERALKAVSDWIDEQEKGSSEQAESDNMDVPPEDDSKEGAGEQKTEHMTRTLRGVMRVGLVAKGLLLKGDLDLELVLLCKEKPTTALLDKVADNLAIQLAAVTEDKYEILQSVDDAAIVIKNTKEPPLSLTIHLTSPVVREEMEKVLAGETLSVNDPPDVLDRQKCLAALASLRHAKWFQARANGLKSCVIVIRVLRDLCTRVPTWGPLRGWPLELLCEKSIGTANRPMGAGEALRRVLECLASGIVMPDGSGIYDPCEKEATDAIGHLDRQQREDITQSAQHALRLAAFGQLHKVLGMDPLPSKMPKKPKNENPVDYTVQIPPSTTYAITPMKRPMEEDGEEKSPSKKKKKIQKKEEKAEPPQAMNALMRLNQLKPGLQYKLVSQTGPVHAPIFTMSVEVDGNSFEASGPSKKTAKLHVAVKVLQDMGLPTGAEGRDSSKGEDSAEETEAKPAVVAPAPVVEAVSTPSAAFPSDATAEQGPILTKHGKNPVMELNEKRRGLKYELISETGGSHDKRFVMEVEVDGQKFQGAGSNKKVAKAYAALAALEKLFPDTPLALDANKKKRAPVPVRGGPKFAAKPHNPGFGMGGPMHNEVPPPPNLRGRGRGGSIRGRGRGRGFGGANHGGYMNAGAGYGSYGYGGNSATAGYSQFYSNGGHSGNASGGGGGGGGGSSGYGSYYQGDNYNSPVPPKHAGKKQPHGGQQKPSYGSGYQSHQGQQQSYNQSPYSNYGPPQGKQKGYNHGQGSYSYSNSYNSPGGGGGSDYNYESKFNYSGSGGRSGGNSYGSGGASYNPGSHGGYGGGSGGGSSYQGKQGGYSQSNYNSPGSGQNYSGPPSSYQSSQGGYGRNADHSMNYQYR
UniProt Q92551: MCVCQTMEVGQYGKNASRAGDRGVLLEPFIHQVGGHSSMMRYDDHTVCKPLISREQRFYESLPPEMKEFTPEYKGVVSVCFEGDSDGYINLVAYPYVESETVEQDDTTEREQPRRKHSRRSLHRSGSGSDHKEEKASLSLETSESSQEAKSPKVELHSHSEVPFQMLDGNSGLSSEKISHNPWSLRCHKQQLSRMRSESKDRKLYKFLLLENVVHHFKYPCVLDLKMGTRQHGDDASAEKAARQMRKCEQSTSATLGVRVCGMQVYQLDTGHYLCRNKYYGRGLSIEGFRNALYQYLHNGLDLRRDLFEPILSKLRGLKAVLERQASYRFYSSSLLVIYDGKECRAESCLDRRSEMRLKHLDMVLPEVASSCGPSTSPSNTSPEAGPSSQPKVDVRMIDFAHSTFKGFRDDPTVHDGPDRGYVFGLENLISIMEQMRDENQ
UniProt Q99729: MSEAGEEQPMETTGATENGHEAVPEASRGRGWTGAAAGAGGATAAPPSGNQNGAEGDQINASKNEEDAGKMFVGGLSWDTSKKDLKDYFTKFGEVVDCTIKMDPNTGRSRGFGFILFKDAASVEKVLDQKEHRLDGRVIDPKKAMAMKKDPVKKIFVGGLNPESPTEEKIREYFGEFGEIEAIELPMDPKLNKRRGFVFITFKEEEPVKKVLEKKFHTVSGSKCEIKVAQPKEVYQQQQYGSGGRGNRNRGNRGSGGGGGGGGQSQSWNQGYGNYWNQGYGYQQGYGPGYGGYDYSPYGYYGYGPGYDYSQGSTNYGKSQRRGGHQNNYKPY
UniProt Q86VI3: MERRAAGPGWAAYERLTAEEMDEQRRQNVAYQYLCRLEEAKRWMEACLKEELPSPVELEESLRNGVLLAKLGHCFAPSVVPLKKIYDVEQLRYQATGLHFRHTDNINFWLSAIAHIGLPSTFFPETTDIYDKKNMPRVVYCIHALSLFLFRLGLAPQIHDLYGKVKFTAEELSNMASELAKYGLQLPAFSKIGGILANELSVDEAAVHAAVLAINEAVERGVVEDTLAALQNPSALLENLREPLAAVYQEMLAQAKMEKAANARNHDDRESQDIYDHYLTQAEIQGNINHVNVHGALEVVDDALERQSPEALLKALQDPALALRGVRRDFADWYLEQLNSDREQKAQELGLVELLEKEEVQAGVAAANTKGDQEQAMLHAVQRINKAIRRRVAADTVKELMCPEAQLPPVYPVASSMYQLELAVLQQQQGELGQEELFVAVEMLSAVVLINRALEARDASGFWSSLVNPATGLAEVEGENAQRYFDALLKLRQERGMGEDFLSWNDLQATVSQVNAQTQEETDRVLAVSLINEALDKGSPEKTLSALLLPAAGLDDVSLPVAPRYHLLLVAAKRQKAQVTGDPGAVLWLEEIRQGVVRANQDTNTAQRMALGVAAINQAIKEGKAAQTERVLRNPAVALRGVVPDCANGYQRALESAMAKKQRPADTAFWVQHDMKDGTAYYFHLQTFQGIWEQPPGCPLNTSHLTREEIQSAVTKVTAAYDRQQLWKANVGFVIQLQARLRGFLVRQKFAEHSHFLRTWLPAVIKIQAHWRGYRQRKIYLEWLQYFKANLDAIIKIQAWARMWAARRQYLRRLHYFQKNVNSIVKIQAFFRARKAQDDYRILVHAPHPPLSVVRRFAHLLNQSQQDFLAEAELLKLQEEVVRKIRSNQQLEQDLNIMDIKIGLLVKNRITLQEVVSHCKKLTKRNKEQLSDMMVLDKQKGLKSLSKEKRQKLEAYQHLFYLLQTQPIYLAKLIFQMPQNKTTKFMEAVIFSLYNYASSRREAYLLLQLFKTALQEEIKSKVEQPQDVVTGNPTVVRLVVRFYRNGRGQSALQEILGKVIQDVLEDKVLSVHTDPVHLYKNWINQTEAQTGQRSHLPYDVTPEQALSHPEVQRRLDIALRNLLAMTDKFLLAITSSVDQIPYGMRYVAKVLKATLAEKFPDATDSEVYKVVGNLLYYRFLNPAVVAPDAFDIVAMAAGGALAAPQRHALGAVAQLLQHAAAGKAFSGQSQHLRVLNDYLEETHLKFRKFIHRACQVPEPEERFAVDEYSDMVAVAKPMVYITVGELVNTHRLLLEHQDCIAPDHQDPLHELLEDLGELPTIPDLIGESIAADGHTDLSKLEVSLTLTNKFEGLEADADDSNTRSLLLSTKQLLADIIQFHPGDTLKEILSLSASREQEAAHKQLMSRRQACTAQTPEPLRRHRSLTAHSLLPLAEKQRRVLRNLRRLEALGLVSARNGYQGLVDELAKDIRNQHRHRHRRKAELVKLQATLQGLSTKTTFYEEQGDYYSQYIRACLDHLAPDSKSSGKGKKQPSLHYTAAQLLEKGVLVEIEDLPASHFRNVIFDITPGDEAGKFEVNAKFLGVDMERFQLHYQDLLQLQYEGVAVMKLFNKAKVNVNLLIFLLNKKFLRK
UniProt P52758: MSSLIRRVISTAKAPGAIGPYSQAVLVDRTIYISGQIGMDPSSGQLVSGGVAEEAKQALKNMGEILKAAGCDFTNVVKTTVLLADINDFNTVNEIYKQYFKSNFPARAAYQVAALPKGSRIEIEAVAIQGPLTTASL
UniProt Q9UNL4, whole entry: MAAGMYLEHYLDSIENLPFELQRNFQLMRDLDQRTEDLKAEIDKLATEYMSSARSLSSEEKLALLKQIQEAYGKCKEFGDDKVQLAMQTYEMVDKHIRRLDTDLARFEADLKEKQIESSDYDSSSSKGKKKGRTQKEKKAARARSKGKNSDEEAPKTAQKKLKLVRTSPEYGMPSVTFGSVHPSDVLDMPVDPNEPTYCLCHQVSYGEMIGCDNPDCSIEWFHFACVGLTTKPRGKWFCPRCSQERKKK
UniProt Q00613: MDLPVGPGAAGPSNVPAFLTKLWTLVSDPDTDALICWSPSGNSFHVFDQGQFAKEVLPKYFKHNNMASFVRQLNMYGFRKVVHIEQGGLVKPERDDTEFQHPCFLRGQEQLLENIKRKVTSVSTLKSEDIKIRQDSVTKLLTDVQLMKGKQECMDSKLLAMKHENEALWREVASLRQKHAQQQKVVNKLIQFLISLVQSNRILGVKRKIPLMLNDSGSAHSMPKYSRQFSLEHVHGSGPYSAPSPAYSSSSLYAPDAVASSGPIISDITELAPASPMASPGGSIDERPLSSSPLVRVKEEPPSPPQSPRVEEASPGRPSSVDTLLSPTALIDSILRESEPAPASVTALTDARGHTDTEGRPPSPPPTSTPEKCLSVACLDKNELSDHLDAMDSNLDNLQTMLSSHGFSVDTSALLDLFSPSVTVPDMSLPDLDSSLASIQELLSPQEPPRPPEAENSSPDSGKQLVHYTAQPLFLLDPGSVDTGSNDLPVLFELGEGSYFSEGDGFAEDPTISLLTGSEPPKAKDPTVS
UniProt Q8N5M9: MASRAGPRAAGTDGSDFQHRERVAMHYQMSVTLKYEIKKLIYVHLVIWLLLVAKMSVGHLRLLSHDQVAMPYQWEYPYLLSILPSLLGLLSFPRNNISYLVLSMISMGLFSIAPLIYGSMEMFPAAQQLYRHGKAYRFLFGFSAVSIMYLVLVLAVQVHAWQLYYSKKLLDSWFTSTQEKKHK

Compound: COc1ccc(Cn2ccc3ccc(C(=O)NO)cc32)cc1
Assay: dose-dependent thermal stabilisation call (2D-TPP, DLPTP, 10% FDR) (binary (1 = stabilised)); higher = stabilised by the compound
Settings: system: HL-60 intact cells; concentration range 0.04-10 µM

Target	dose-dependent thermal stabilisation call
HNRNPA3 (UniProt P51991)	inactive: 0
IPO5 (UniProt O00410)	inactive: 0
KIAA0406 (UniProt O43156)	inactive: 0
ITFG1 (UniProt Q8TB96)	inactive: 0
KCNAB2 (UniProt Q13303)	inactive: 0
IKBKAP (UniProt O95163)	inactive: 0
ISOC1 (UniProt Q96CN7)	inactive: 0
ILF3 (UniProt Q12906)	active: 1
IP6K1 (UniProt Q92551)	inactive: 0
HNRNPAB (UniProt Q99729)	inactive: 0
INPP4A (UniProt Q96PE3)	inactive: 0
ITM2B (UniProt Q9Y287)	inactive: 0
HSP90B1 (UniProt P14625)	inactive: 0
IFT74 (UniProt Q96LB3)	inactive: 0
HSD17B12 (UniProt Q53GQ0)	active: 1
HSPB1 (UniProt P04792)	inactive: 0
IBTK (UniProt Q9P2D0)	inactive: 0
HSPC152 (UniProt Q9UI30)	inactive: 0
IQGAP3 (UniProt Q86VI3)	inactive: 0

Another view of part of the listing above:
Target,dose-dependent thermal stabilisation call
IPO5 (UniProt O00410),inactive: 0
KIAA0406 (UniProt O43156),inactive: 0
ITFG1 (UniProt Q8TB96),inactive: 0
ISOC1 (UniProt Q96CN7),inactive: 0
IP6K1 (UniProt Q92551),inactive: 0
HSP90B1 (UniProt P14625),inactive: 0
IBTK (UniProt Q9P2D0),inactive: 0

(continued)

Target	dose-dependent thermal stabilisation call
KCTD6 (UniProt Q8NC69)	inactive: 0
HRSP12 (UniProt P52758)	inactive: 0
IL18 (UniProt Q14116)	inactive: 0
HSCB (UniProt Q8IWL3)	inactive: 0
JUNB (UniProt P17275)	inactive: 0
INTS2 (UniProt Q9H0H0)	inactive: 0
HMHA1 (UniProt Q92619)	inactive: 0
IKIP (UniProt Q70UQ0)	inactive: 0
HTATIP2 (UniProt Q9BUP3)	inactive: 0
INTS4 (UniProt Q96HW7)	inactive: 0
ING4 (UniProt Q9UNL4)	inactive: 0
IMPA1 (UniProt P29218)	inactive: 0
HSF1 (UniProt Q00613)	inactive: 0
HSPA1A (UniProt P0DMV8)	inactive: 0
INPP5A (UniProt Q14642)	inactive: 0
INTS9 (UniProt Q9NV88)	inactive: 0
IPO8 (UniProt O15397)	inactive: 0
JAGN1 (UniProt Q8N5M9)	inactive: 0
